Experimental data as given in patent US8980843B2 (Temple University—of the Commonwealth System of Higher …, priority 2009, dated 2015).

Experiment: general procedure: Fmoc solid-phase peptide synthesis; Rink Amide AM Resin; HATU
Details: whole synthesis, 220 and 280 nm, scale of the general procedure 0.025-1 mmol

Substance: Tyr(I2)-Ser-Thr(α-GalNAc)-Glu-Val-Val-Ala-Leu-Ser-Arg-AcpNH2
- final HPLC purity: >95%
